# Experimental data from paper PMC7494909.
# Results are given in words; binding and its absence hold for the method and conditions named. Binding seen in cells or lysates may run through a third protein. Some binding calls cover weakened binding; strength is not graded here. For some of these results: Where a sequence is shown, tags or fusion partners need not be part of it.
# T1: Flag-tagged Xinβ protein fragment (amino acids 334-1075) (UniProt Q4U4S6)
# T1 sequence: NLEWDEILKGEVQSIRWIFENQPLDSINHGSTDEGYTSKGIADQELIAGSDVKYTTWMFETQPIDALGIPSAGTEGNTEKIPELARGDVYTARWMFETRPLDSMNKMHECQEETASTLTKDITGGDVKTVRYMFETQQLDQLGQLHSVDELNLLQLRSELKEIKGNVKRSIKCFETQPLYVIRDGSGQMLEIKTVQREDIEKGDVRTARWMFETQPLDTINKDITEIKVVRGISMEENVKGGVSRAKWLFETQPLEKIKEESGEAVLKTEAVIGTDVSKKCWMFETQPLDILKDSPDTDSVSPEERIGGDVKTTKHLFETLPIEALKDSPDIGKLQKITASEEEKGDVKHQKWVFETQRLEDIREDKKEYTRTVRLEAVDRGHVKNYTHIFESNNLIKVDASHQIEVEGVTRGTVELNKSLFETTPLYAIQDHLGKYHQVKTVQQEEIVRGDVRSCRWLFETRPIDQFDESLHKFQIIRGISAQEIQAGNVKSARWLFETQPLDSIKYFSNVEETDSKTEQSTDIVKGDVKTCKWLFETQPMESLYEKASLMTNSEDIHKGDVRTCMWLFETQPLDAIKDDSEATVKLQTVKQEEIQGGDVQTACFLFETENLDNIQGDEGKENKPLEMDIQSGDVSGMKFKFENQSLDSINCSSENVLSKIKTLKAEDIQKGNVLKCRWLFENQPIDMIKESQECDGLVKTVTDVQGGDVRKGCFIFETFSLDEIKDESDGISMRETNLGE
# T2: Flag-tagged Xinβ protein fragment (amino acids 334-680) (UniProt Q4U4S6)
# T2 sequence: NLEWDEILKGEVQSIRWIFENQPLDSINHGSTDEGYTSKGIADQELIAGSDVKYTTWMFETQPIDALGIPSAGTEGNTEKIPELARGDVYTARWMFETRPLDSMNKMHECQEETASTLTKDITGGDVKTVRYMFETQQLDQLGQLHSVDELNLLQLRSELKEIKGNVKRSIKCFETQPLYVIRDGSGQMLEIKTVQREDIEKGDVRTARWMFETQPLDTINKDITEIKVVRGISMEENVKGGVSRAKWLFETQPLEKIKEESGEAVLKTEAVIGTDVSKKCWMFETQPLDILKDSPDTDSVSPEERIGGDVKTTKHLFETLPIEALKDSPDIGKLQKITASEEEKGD
# T3: GFP-tagged NF2 (neurofibromin 2) (UniProt P46662)
# T3 sequence: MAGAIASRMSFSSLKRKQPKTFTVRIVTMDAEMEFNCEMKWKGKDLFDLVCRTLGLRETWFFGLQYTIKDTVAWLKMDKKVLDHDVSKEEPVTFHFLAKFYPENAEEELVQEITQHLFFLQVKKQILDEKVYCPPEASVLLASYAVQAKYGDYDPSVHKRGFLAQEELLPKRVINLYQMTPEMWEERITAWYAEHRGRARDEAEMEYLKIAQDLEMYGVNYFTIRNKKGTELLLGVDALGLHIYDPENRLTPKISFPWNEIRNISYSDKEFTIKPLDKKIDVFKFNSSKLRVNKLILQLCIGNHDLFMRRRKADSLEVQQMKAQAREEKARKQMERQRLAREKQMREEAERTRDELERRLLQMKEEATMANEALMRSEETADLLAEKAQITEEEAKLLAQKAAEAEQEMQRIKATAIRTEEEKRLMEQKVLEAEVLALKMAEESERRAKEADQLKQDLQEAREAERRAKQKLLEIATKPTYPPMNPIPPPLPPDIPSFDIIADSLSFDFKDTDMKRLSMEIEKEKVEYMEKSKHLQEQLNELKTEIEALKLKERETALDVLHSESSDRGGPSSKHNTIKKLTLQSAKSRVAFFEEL
# How the values were obtained:
# [1] = molecular target: T1, Flag-tagged Xinβ protein fragment (amino acids 334-1075); assay: co-IP; HEK293T cells transiently transfected, harvested after 48 h in PBS with 0.5% Triton X-100, 1 mM EDTA, 1 mM PMSF and protease inhibitors; precipitated with anti-Flag or anti-GFP antibodies and protein A/G beads; western blot
# [2] = molecular target: T2, Flag-tagged Xinβ protein fragment (amino acids 334-680); assay: as above
# [3] = molecular target: T3, GFP-tagged NF2 (neurofibromin 2); assay: as above
# [4] = molecular target: endogenous Xinβ (mouse (endogenous in mouse heart)) (UniProt Q4U4S6); assay: co-IP; endogenous proteins from WT and Xinβ KO mouse hearts; the precipitating antibody and the conditions are not told
binder,measurement,setting,value
"GFP-tagged NF2 (neurofibromin 2) (protein, UniProt P46662 1-596) MAGAIASRMSFSSLKRKQPKTFTVRIVTMDAEMEFNCEMKWKGKDLFDLVCRTLGLRETWFFGLQYTIKDTVAWLKMDKKVLDHDVSKEEPVTFHFLAKFYPENAEEELVQEITQHLFFLQVKKQILDEKVYCPPEASVLLASYAVQAKYGDYDPSVHKRGFLAQEELLPKRVINLYQMTPEMWEERITAWYAEHRGRARDEAEMEYLKIAQDLEMYGVNYFTIRNKKGTELLLGVDALGLHIYDPENRLTPKISFPWNEIRNISYSDKEFTIKPLDKKIDVFKFNSSKLRVNKLILQLCIGNHDLFMRRRKADSLEVQQMKAQAREEKARKQMERQRLAREKQMREEAERTRDELERRLLQMKEEATMANEALMRSEETADLLAEKAQITEEEAKLLAQKAAEAEQEMQRIKATAIRTEEEKRLMEQKVLEAEVLALKMAEESERRAKEADQLKQDLQEAREAERRAKQKLLEIATKPTYPPMNPIPPPLPPDIPSFDIIADSLSFDFKDTDMKRLSMEIEKEKVEYMEKSKHLQEQLNELKTEIEALKLKERETALDVLHSESSDRGGPSSKHNTIKKLTLQSAKSRVAFFEEL",binding,[1],binds
same,binding,[2],binds
"Flag-tagged Xinβ protein fragment (amino acids 334-1075) (domain or fragment, UniProt Q4U4S6 334-1075) NLEWDEILKGEVQSIRWIFENQPLDSINHGSTDEGYTSKGIADQELIAGSDVKYTTWMFETQPIDALGIPSAGTEGNTEKIPELARGDVYTARWMFETRPLDSMNKMHECQEETASTLTKDITGGDVKTVRYMFETQQLDQLGQLHSVDELNLLQLRSELKEIKGNVKRSIKCFETQPLYVIRDGSGQMLEIKTVQREDIEKGDVRTARWMFETQPLDTINKDITEIKVVRGISMEENVKGGVSRAKWLFETQPLEKIKEESGEAVLKTEAVIGTDVSKKCWMFETQPLDILKDSPDTDSVSPEERIGGDVKTTKHLFETLPIEALKDSPDIGKLQKITASEEEKGDVKHQKWVFETQRLEDIREDKKEYTRTVRLEAVDRGHVKNYTHIFESNNLIKVDASHQIEVEGVTRGTVELNKSLFETTPLYAIQDHLGKYHQVKTVQQEEIVRGDVRSCRWLFETRPIDQFDESLHKFQIIRGISAQEIQAGNVKSARWLFETQPLDSIKYFSNVEETDSKTEQSTDIVKGDVKTCKWLFETQPMESLYEKASLMTNSEDIHKGDVRTCMWLFETQPLDAIKDDSEATVKLQTVKQEEIQGGDVQTACFLFETENLDNIQGDEGKENKPLEMDIQSGDVSGMKFKFENQSLDSINCSSENVLSKIKTLKAEDIQKGNVLKCRWLFENQPIDMIKESQECDGLVKTVTDVQGGDVRKGCFIFETFSLDEIKDESDGISMRETNLGE",binding,[3],binds
"NF2 protein (endogenous, heart) (protein, UniProt P46662 1-596) MAGAIASRMSFSSLKRKQPKTFTVRIVTMDAEMEFNCEMKWKGKDLFDLVCRTLGLRETWFFGLQYTIKDTVAWLKMDKKVLDHDVSKEEPVTFHFLAKFYPENAEEELVQEITQHLFFLQVKKQILDEKVYCPPEASVLLASYAVQAKYGDYDPSVHKRGFLAQEELLPKRVINLYQMTPEMWEERITAWYAEHRGRARDEAEMEYLKIAQDLEMYGVNYFTIRNKKGTELLLGVDALGLHIYDPENRLTPKISFPWNEIRNISYSDKEFTIKPLDKKIDVFKFNSSKLRVNKLILQLCIGNHDLFMRRRKADSLEVQQMKAQAREEKARKQMERQRLAREKQMREEAERTRDELERRLLQMKEEATMANEALMRSEETADLLAEKAQITEEEAKLLAQKAAEAEQEMQRIKATAIRTEEEKRLMEQKVLEAEVLALKMAEESERRAKEADQLKQDLQEAREAERRAKQKLLEIATKPTYPPMNPIPPPLPPDIPSFDIIADSLSFDFKDTDMKRLSMEIEKEKVEYMEKSKHLQEQLNELKTEIEALKLKERETALDVLHSESSDRGGPSSKHNTIKKLTLQSAKSRVAFFEEL",binding,[4],binds
